These are yes or no findings as the source states them, for the method shown. Binding seen in cells or lysates may run through a third protein. Some results given as binding are weak or reduced against the parent protein; the word gives no strength.
T1: Podocalyxin (rat (endogenous in Fischer 344 rat liver tumors)) (UniProt Q9WTQ2)
T1 sequence: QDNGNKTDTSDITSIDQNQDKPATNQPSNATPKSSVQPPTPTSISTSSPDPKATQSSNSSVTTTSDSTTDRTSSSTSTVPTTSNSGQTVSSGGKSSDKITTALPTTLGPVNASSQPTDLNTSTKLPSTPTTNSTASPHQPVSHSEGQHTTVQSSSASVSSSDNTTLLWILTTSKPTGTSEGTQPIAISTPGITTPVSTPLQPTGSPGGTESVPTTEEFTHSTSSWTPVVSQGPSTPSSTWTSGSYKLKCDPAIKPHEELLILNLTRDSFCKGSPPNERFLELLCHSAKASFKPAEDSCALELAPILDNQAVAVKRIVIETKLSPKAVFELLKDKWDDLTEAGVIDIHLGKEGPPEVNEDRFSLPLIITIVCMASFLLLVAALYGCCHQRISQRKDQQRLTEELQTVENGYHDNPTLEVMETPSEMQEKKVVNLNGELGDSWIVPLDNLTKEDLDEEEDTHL

Chains of the proteins cited; added tags and fusions are not shown.
UniProt P31977: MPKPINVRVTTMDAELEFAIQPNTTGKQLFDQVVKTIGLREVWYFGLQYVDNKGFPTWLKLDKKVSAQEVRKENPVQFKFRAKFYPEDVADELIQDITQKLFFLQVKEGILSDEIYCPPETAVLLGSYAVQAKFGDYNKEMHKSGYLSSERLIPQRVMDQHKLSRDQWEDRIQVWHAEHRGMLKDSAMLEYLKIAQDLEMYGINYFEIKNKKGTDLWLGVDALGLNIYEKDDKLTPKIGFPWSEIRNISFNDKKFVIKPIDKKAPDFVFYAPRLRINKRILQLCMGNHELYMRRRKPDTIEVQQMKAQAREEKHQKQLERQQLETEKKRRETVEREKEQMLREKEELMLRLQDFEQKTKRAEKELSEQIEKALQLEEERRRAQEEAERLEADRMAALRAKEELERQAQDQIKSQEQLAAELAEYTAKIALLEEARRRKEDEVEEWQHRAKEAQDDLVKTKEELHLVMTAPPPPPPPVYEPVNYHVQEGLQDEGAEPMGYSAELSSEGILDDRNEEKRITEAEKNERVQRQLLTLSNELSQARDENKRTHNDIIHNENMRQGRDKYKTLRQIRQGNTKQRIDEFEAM
UniProt Q9EPT8: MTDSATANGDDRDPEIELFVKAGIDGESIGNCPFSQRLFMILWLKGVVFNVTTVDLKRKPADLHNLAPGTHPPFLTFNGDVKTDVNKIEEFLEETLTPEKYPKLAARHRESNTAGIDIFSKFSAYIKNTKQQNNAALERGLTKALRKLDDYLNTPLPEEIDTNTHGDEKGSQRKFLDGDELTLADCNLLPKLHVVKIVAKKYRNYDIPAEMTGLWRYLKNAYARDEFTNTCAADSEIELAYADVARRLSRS


How the values were obtained:
Assay in all cases: co-IP; 18-month rat liver tumors; Pierce Co-IP kit; immunoprecipitation with anti-EZR, anti-PODXL or anti-CLIC5 antibody, Western blot
[1] = target: Ezrin (rat (endogenous in Fischer 344 rat liver tumors)) (UniProt P31977)
[2] = target: T1, Podocalyxin (rat (endogenous in Fischer 344 rat liver tumors))
[3] = target: Chloride intracellular channel 5 (rat (endogenous in Fischer 344 rat liver tumors)) (UniProt Q9EPT8)

binding [1] | binding [2] | binding [3] | Molecule
binds | binds |  | Chloride intracellular channel 5 (from UniProt Q9EPT8 1-251)
 |  | binds | Ezrin (from UniProt P31977 1-586)
 |  | binds | Podocalyxin (protein, UniProt Q9WTQ2 25-485) QDNGNKTDTSDITSIDQNQDKPATNQPSNATPKSSVQPPTPTSISTSSPDPKATQSSNSSVTTTSDSTTDRTSSSTSTVPTTSNSGQTVSSGGKSSDKITTALPTTLGPVNASSQPTDLNTSTKLPSTPTTNSTASPHQPVSHSEGQHTTVQSSSASVSSSDNTTLLWILTTSKPTGTSEGTQPIAISTPGITTPVSTPLQPTGSPGGTESVPTTEEFTHSTSSWTPVVSQGPSTPSSTWTSGSYKLKCDPAIKPHEELLILNLTRDSFCKGSPPNERFLELLCHSAKASFKPAEDSCALELAPILDNQAVAVKRIVIETKLSPKAVFELLKDKWDDLTEAGVIDIHLGKEGPPEVNEDRFSLPLIITIVCMASFLLLVAALYGCCHQRISQRKDQQRLTEELQTVENGYHDNPTLEVMETPSEMQEKKVVNLNGELGDSWIVPLDNLTKEDLDEEEDTHL
